Measurements published in PubChem BioAssay AID2685 (National Center for Advancing Translational Sciences (NCATS), 2010).
The other results are listed elsewhere or left out. Shown are side measurements of this screen, not its main read-out; they come without a call. The list favours compounds with an active or inconclusive main result. Words in brackets tell the shape of the fitted curve; partial curves, single points and poor fits give uncertain potencies.

Experiment: qHTS Assay for Lipid Storage Modulators in Drosophila S3 Cells;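 for cell number change: cells counted by Cell Tracker Red CMTPX staining in the red channel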
Settings: BODIPY lipid droplet fluorescence, 18-24 h; for cell number change: measured here: cell count max response, cells fed with added oleic acid
In short: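 Drosophila S3 cells got compounds at several concentrations plus oleic acid (400 uM solution). Laser-scanning cytometry with 488 nm excitation read lipid droplets at 500-530 nm and cells at 575-640 nm. Percent activity was relative to 20 uM Triacsin C.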

[1] = measured here: lipid fluorescence (Fed channel) AC50, cells fed with added oleic acid
[2] = measured here: cell number channel AC50, cells fed with added oleic acid

Row | SMILES | cell number change | AC50 [1] | AC50 [2]
1 | COc1ccccc1N/N=C(\C#N)C(=N)N1CCOCC1 | 25.8% | 6.51 µM [rising, full curve, poor fit] | –
2 | CC(C)(C)C1CCC(=O)N(CCOc2ccccc2)CC1 (stereo not given) | -23.6% | – | –
3 | COc1cccc(C=Nc2cc(C)cc(C)c2)c1O | -25.5% | 0.00651 µM [falling, full curve, poor fit] | 0.00651 µM [falling, full curve]
4 | COc1ccc(NC(=O)NCCN2CCN(c3cc(OC)ccc3OC)CC2)cc1 | -16.1% | 16.4 µM [falling, single point] | –
5 | COc1ccc(CN(C)C(=O)c2ccc(NC(=O)CC3SC(N4CCCC4)=NC3=O)cc2)c(OC)c1OC (stereo not given) | -9.68% | 6.51 µM [falling, single point] | –
6 | CCCc1nc2ccccc2c(=O)n1-c1c(C)n(C)n(-c2ccccc2)c1=O | -7.57% | 3.26 µM [falling, single point] | –
7 | COc1ccc2cc3c(N)nn(C(=O)c4cccc(F)c4)c3nc2c1 | -45.5% | 29.1 µM [falling, single point] | 29.1 µM [falling, single point]
8 | COc1ccc(CN(C(=O)c2ccc(C)cc2)C2CCS(=O)(=O)C2)cc1 (stereo not given) | 22.4% | 13 µM [rising, partial curve] | –
9 | Nn1c(SCc2nc3ccccc3[nH]2)nnc1C1CCCCC1 | -18.1% | – | –
10 | O=C(O)c1ccc(Cl)c(S(=O)(=O)NCc2cccnc2)c1 | -35% | – | 4.11 µM [falling, partial curve]
11 | COc1ccc2[nH]c3c(c2c1)CCn1c-3nc2ccccc2c1=O | 14.5% | 0.651 µM [rising, full curve] | –
12 | COc1cc(C(=O)OCC(=O)Nc2ccc(SC(F)F)cc2)cc(OC)c1OC | -19.5% | 6.51 µM [falling, full curve, poor fit] | –
13 | COc1ccc2c(c1)[n+](=O)c(C(C)=O)c(C)n2[O-] | -3.57% | 0.651 µM [rising, single point] | –
14 | COc1cc(NC(=O)c2noc(C)c2[N+](=O)[O-])c(OC)cc1Cl | -0.38% | 0.411 µM [rising, partial curve, poor fit] | –
15 | CCOC(=O)c1ccc(NC(=O)c2nc[nH]c2C(=O)NCCCCNC(=O)c2[nH]cnc2C(=O)Nc2ccc(C(=O)OCC)cc2)cc1 | 20.4% | 0.731 µM [falling, single point] | –
16 | Cc1ccc2nc(NC3=NC(CC(=O)O)C(=O)N3)nc(C)c2c1 (stereo not given) | 59.2% | – | 20.6 µM [rising, single point]
17 | COc1ccc(/C=C2\COc3ccccc3C2=O)c(OC)c1 | -39% | 29.1 µM [falling, partial curve, poor fit] | 13 µM [falling, single point]
18 | CCN(CC)S(=O)(=O)c1ccc(Oc2ccccc2)cc1 | – | 0.116 µM [falling, full curve, poor fit] | –
19 | CCc1ccc2c(c1)C(c1ccc([N+](=O)[O-])cc1)=NNC(c1ccc(F)cc1)=N2 | -51.8% | 23.1 µM [falling, single point] | 6.51 µM [falling, full curve]
20 | O=C(O)c1cccc(C(=O)O)n1 | -3.45% | 1.3 µM [falling, full curve] | –
21 | COc1ccc(C(=O)Nc2nc(-c3cccs3)cs2)cc1 | -18.9% | 23.1 µM [rising, single point] | –

Row | SMILES | cell number change | AC50 [1] | AC50 [2]
22 | CCCCN(C(=O)c1cc(CC)c(C)s1)c1c(N)n(CCC)c(=O)[nH]c1=O | 50% | 0.103 µM [rising, full curve, poor fit] | 29.1 µM [rising, single point]
23 | Cc1ccc(S(=O)(=O)NCc2ccco2)cc1C(N)=O | 20.6% | – | –
24 | CCCCc1ccc(NC(=S)NCC2CCCO2)cc1 (stereo not given) | 7.12% | 14.6 µM [rising, single point] | –
25 | Cc1cccc(NC(=O)CNC(=O)Cn2cc(C(F)(F)F)cc(Cl)c2=O)c1C | 2.01% | – | –
26 | CC(C)c1ccc(S(=O)(=O)Nc2ccc(SC(F)F)cc2)cc1 | -48.8% | 29.1 µM [falling, single point] | 11.6 µM [falling, partial curve]
27 | CCCCC(=O)Nc1ccc2c3c(cccc13)C(=O)N2CC | 43.4% | 3.66 µM [rising, single point] | –
28 | CCCN(CCC)S(=O)(=O)c1cccc(-c2csc(C)n2)c1 | 8.96% | 0.13 µM [rising, full curve, poor fit] | 1.16 µM [rising, partial curve, poor fit]
29 | O=C(COC(=O)C1CCN(c2ccc(C(F)(F)F)cn2)CC1)Nc1cccc(F)c1 | – | 2.06 µM [rising, partial curve] | 1.64 µM [rising, partial curve]
30 | CCOC(=O)N1CCN(c2nc(-c3ccccc3)c3cc(C)ccc3n2)CC1 | 4.17% | 29.1 µM [falling, single point] | –
31 | O=C(COCc1cc(-c2cccs2)on1)NC1CCCCC1 | – | 6.51 µM [rising, single point] | –
32 | CCOc1ccc(C(=O)Nc2cc(NC(=O)c3ccc(OCC)c(Cl)c3)cc(C(=O)O)c2)cc1Cl | -5.7% | 0.0731 µM [falling, full curve, poor fit] | –
33 | O=C(O)c1ccc(/C=N/NC(=O)C(O)(c2ccccc2)c2ccccc2)cc1 | -4.42% | 29.1 µM [rising, single point] | –
34 | O=C(NCc1cccc(F)c1)c1ccc2nc(N3CCOCC3)sc2c1 | 21.9% | – | –
35 | CCOC(=O)c1cccc(NC(=O)c2cccs2)c1 | -35.7% | 4.61 µM [rising, full curve, poor fit] | 5.8 µM [falling, partial curve]
36 | CCOc1ccc(Oc2ccccc2NC(=O)CSCC(=O)Nc2cc(C)on2)cc1 | 79.1% | – | 16.4 µM [rising, partial curve]
37 | CCOC(=O)C(C)Oc1c(C(=O)OC)sc2ncccc12 (stereo not given) | 14.7% | – | 2.06 µM [rising, single point]
38 | NC(=O)NC(CC(=O)NCCc1ccccn1)c1ccccc1Cl (stereo not given) | 2.78% | 0.58 µM [rising, single point] | –
39 | Cc1cccc(NC(=O)CCC(=O)Nc2nnc(C(F)(F)F)s2)c1 | -0.645% | – | 0.517 µM [falling, single point]
40 | CC(O)CNc1nc2ccccc2n1CC(=O)N1CCN(Cc2ccccc2)CC1 (stereo not given) | -10.4% | – | –
41 | Cc1ccc(CN2[C@@H](CC3CCCCC3)COCCS2(=O)=O)cc1 | -22.3% | – | –
42 | COc1ccc(/C=N/NC(=O)Cn2nnc3ccccc32)cc1OC | 12.4% | 4.61 µM [rising, full curve] | –

Reformatted: 4 of the compounds above.
Row,SMILES,cell number change,AC50 [1],AC50 [2]
24,CCCCc1ccc(NC(=S)NCC2CCCO2)cc1 (stereo not given),7.12%,"14.6 µM [rising, single point]",–
29,O=C(COC(=O)C1CCN(c2ccc(C(F)(F)F)cn2)CC1)Nc1cccc(F)c1,–,"2.06 µM [rising, partial curve]","1.64 µM [rising, partial curve]"
34,O=C(NCc1cccc(F)c1)c1ccc2nc(N3CCOCC3)sc2c1,21.9%,–,–
39,Cc1cccc(NC(=O)CCC(=O)Nc2nnc(C(F)(F)F)s2)c1,-0.645%,–,"0.517 µM [falling, single point]"

(more compounds)

Row | SMILES | cell number change | AC50 [1] | AC50 [2]
43 | O=C(O)CSC1CC(=O)N(c2ccc(Br)cc2)C1=O (stereo not given) | – | 0.58 µM [rising, single point] | –
44 | COc1ccc(N(C(C)C(=O)N/N=C/c2cccnc2)S(C)(=O)=O)cc1 (stereo not given) | -16.2% | 4.11 µM [falling, single point] | –
45 | N#Cc1ccccc1Cn1c(=O)n(CCCC(=O)NCc2ccc3c(c2)OCO3)c(=O)c2ccccc21 | – | 0.082 µM [rising, full curve, poor fit] | –
46 | Cc1ccc(C(=O)Cn2c(C(=O)OCCO)cc3ccccc32)cc1 | -31.2% | 6.51 µM [falling, single point] | 4.61 µM [falling, partial curve]
47 | COc1c(-c2ccccc2)oc2c(ccc3occc32)c1=O | 20% | 10.3 µM [rising, partial curve, poor fit] | –
48 | CC(=O)CCSc1ncnc2sc(-c3ccccc3)cc12 | 24.9% | – | –
49 | CCOC(=O)c1c(C)n(C)c2ccc(OCC(O)CN3CCCCCC3)cc12 (stereo not given) | – | 1.16 µM [rising, partial curve] | –
50 | Cc1ccc(NC(=O)N2CCCC2C(=O)NCC2CCCCC2)cc1 (stereo not given) | 7.69% | 5.17 µM [rising, single point] | –
51 | Cc1cc(Br)ccc1NC(=O)CN(C)C(=O)COc1cccc2c1OC(C)(C)C2 | – | 3.26 µM [rising, partial curve, poor fit] | 0.731 µM [rising, partial curve, poor fit]
52 | C=CCCCCCCCCC(=O)Nc1c[nH]c(=O)[nH]c1=O | -14.7% | 1.64 µM [falling, partial curve, poor fit] | –
53 | C[C@H](NC(=O)C1CC(=O)N(c2ccc3c(c2)OCCO3)C1)C(=O)N1CCCCC1 (stereo not given in full) | 2.64% | – | –
54 | O=C(c1ccc2c(=O)n(-c3ccccc3)c(=S)[nH]c2c1)N1CCN(c2ccccc2)CC1 | 17.1% | 14.6 µM [falling, partial curve] | –
55 | C=C(C)Cn1c(SCCCO)nc2c1c(=O)[nH]c(=O)n2C | 2.04% | 5.8 µM [falling, full curve, poor fit] | –
56 | O=C(CNS(=O)(=O)c1ccc(F)cc1)N1CCOCC1 | -2.63% | – | –
57 | O=C(Nc1ccccc1Oc1ccccc1)c1ccc(Br)o1 | 3.52% | 6.51 µM [rising, single point] | –
58 | c1ccc(COc2ccccc2CNc2nn[nH]n2)cc1 | 2.55% | – | 0.731 µM [rising, single point]
59 | Cc1ccc(Nc2nc(-c3ccc(C)cc3)c(CC(=O)O)s2)cc1 | 44.5% | – | –
60 | O=C(NCc1cccc(Cl)c1)N1CCN(S(=O)(=O)c2ccccc2F)CC1 | 20.3% | – | 0.731 µM [rising, full curve, poor fit]
61 | Clc1ccc(-[n+]2c(-c3cccc(Br)c3)[nH]c3nc4ccccc4nc32)cc1 | 28.7% | 6.51 µM [rising, single point] | –
